No constants are given. Whether binding was seen depends on the method and setting. Some entries that bind do so weakly or less than the wild type.

For the assay, the target named is monkey PSMA-His (ACRO, PSA-C5247) (monkey (cynomolgus)). The experiment in a line: SPR (Biacore T200). (In SPR one partner is held on a chip, and binding of the other changes the refractive index at the surface.)

B1: P19 (19L2H2) (antibody, human IgG1, kappa, V domains shown)
VH: EVKLVESGGGLVQPGGSLRLSCAASGFTFSDYYMAWVRQAPGKGLEWVANINYDGSSTYYLDSLKSRFTISRDNAKNSLYLQMNSLRAEDTAVYYCARGGDYWDAMDYWGQGTTVTVSS
VL: DIQMTQSPSSLSASVGDRVTITCRASQDISKYLNWYQQKPGKAPKLLIYYTSSLHSGVPSRFSGSGSGTDYTLTISSLQPEDFATYYCQQGNRLPRTFGGGTKVEIKR
For the molecule B1, the binding entry is “binds”.

The values are drawn from patent EP4755403A1, “ANTI-PSMA ANTIBODY-DRUG CONJUGATE AND PHARMACEUTICAL USE THEREOF” (priority 2023, dated 2025).
